Assay results as given in PubChem BioAssay AID258 (DTP/NCI, 2004).
The list shows only some results of the screen, not a fair sample: it is rich in T/C values a quarter to a half above the control, in often repeated tests (any T/C) and in doses without a T/C. Other doses and runs of a compound stand elsewhere. T/C is the treated group as % of the vehicle group. Some doses have a count of surviving animals in place of a T/C: the source files T/C as zero there, which appears to mark a toxic dose or a test without result, not a measured value. Survivors were counted at the toxicity check, usually on the fifth day, unless a day is given; later deaths do not show. Schedule codes are those of the source, read here as Q, the interval in days (D) or hours (H), X, the number of doses. Some schedules carry Z or #; the key to these is not given. Some doses without a T/C left all or most animals alive at the check, yet need not have been tolerated: the source hardly ever lists a survival T/C far under the control, and the zero likely stands for such cases as well. Some doses were run more than once; their values stand side by side, smallest first. Where survival is the endpoint, this PubChem deposit counts one and a half times the control or more as active, and values a quarter to a half above the control carry no call in these data; other NCI protocols may use other cut-offs. Signs of the kind (2×) give the number of equal values in this list. Some T/C values carry the count of animals alive at the toxicity check (mostly the fifth day); where none is given, no animal had died by that day.

Tested on: CD2F1 mice, L1210 leukemia sc, survival T/C
Assay: NCI In Vivo Anticancer Drug Screen. Data for tumor model L1210 Leukemia (subcutaneous) in CD2F1 (CDF1) mice
Conditions: higher T/C = longer survival
Protocol: The antitumor activity of compounds was measured in mice bearing transplantable tumors. Survival or tumor size were measured and the results are expressed as the measurement made in the treated group (T) divided by the measurement made in the vehicle treated control group (C). The tumor model used in this assay is L1210 Leukemia (subcutaneous) in CD2F1 (CDF1) mice

[1] = T/C endpoint: median survival time, dose: 108.0 mg/kg/injection, schedule: Q01DX Z (sc), vehicle: steroid suspending solution
[2] = T/C endpoint: median survival time, dose: 180.0 mg/kg/injection, schedule: Q01DX Z (sc), vehicle: steroid suspending solution
[3] = T/C endpoint: median survival time, dose: 75.0 mg/kg/injection, schedule: Q01DX009 (sc), vehicle: saline
[4] = T/C endpoint: median survival time, dose: 300.0 mg/kg/injection, schedule: Q01DX009 (sc), vehicle: saline
[5] = T/C endpoint: median survival time, dose: 600.0 mg/kg/injection, schedule: Q01DX009 (sc), vehicle: saline

N#Cc1c(-c2ccc(F)cc2)c(-c2ccc(F)cc2)nn(CCO)c1=O
T/C (T/C endpoint: median survival time, dose: 500.0 mg/kg/injection, schedule: Q01DX005 (ip), vehicle: distilled water + Tween-80 + alcohol): 126 % of control

C[C@]12CC[C@H](OC3OC(CO)C(O)C(O)C3O)C[C@H]1CC[C@@H]1[C@@H]2CC[C@]2(C)[C@@H](C3=CCOC3=O)CC[C@]12O (stereo partly specified)
T/C (T/C endpoint: median survival time, dose: 1.08 mg/kg/injection, schedule: Q01DX Z (sc), vehicle: saline): 135 % of control
T/C (T/C endpoint: median survival time, dose: 1.8 mg/kg/injection, schedule: Q01DX Z (sc), vehicle: saline): 125 % of control

Nc1ncnc2c1ncn2C(C=O)OC(C=O)CO (stereo unspecified)
T/C (T/C endpoint: median survival time, dose: 65.0 mg/kg/injection, schedule: Q01DX Z (sc), vehicle: carboxymethylcellulose (CMC)): 133 % of control

CC[C@H](c1ccc(O)cc1)[C@@H](CC)c1ccc(O)cc1
survivor count (T/C endpoint: median survival time, dose: 216.0 mg/kg/injection, schedule: Q01DX Z (sc), vehicle: methylcellulose (MC)): 1 of 10
survivor count (T/C endpoint: median survival time, dose: 360.0 mg/kg/injection, schedule: Q01DX Z (sc), vehicle: methylcellulose (MC)): 4 of 10
survivor count (T/C endpoint: median survival time, dose: 600.0 mg/kg/injection, schedule: Q01DX Z (sc), vehicle: methylcellulose (MC)): 3 of 10
survivor count (T/C endpoint: median survival time, dose: 1000.0 mg/kg/injection, schedule: Q01DX Z (sc), vehicle: methylcellulose (MC)): 6 of 10

C[C@]12C[C@H](O)[C@H]3[C@@H](CCC4=CC(=O)CC[C@@]43C)[C@@H]1CC[C@@H]2C(=O)CO
survivor count (T/C endpoint: median survival time, dose: 23.0 mg/kg/injection, schedule: Q01DX Z (sc), vehicle: methylcellulose (MC)): 6 of 10
survivor count (T/C endpoint: median survival time, dose: 39.0 mg/kg/injection, schedule: Q01DX Z (sc), vehicle: methylcellulose (MC)): 3 of 10
survivor count (T/C endpoint: median survival time, dose: 65.0 mg/kg/injection, schedule: Q01DX Z (sc), vehicle: methylcellulose (MC)): 2 of 10
survivor count (T/C endpoint: median survival time, dose: 108.0 mg/kg/injection, schedule: Q01DX Z (sc), vehicle: methylcellulose (MC)): 5 of 10
survivor count (T/C endpoint: median survival time, dose: 300.0 mg/kg/injection, schedule: Q01DX Z (sc), vehicle: methylcellulose (MC)): 5 of 10

C[C@]12C=CC(=O)C=C1CC[C@@H]1[C@@H]2C(=O)C[C@@]2(C)[C@H]1CC[C@]2(O)C(=O)CO
T/C (T/C endpoint: median survival time, dose: 65.0 mg/kg/injection, schedule: Q#A X Z (sc), vehicle: water): 131 % of control
T/C [1]: 136 % of control
T/C (T/C endpoint: median survival time, dose: 108.0 mg/kg/injection, schedule: Q01DX Z (sc), vehicle: water): 136 % of control
T/C (T/C endpoint: median survival time, dose: 108.0 mg/kg/injection, schedule: Q#A X Z (sc), vehicle: water): 127 % of control
T/C [2]: 145 % of control
T/C (T/C endpoint: median survival time, dose: 180.0 mg/kg/injection, schedule: Q#A X Z (sc), vehicle: water): 131 % of control
T/C (T/C endpoint: median survival time, dose: 300.0 mg/kg/injection, schedule: Q01DX Z (sc), vehicle: steroid suspending solution): 127 % of control
T/C (T/C endpoint: median survival time, dose: 300.0 mg/kg/injection, schedule: Q01DX Z (sc), vehicle: water): 136 % of control
T/C (T/C endpoint: median survival time, dose: 300.0 mg/kg/injection, schedule: Q02DX Z (sc), vehicle: water): 145 % of control
T/C (T/C endpoint: median survival time, dose: 300.0 mg/kg/injection, schedule: Q#A X Z (sc), vehicle: water): 131 % of control
T/C (T/C endpoint: median survival time, dose: 500.0 mg/kg/injection, schedule: Q01DX Z (sc), vehicle: steroid suspending solution): 136 % of control
T/C (T/C endpoint: median survival time, dose: 500.0 mg/kg/injection, schedule: Q01DX Z (sc), vehicle: water): 145 % of control
T/C (T/C endpoint: median survival time, dose: 500.0 mg/kg/injection, schedule: Q02DX Z (sc), vehicle: water): 136 % of control
T/C (T/C endpoint: median survival time, dose: 840.0 mg/kg/injection, schedule: Q01DX Z (sc), vehicle: steroid suspending solution): 127 % of control
T/C (T/C endpoint: median survival time, dose: 840.0 mg/kg/injection, schedule: Q01DX Z (sc), vehicle: water): 127 % of control
T/C (T/C endpoint: median survival time, dose: 840.0 mg/kg/injection, schedule: Q02DX Z (sc), vehicle: water): 127 % of control
T/C (T/C endpoint: median survival time, dose: 840.0 mg/kg/injection, schedule: Q#A X Z (sc), vehicle: water): 127 % of control
T/C (T/C endpoint: median survival time, dose: 1400.0 mg/kg/injection, schedule: Q02DX Z (sc), vehicle: water): 127 % of control

Nc1nc([Se]c2nc(N)nc3c2ncn3C2OC(CO)C(O)C2O)c2ncn(C3OC(CO)C(O)C3O)c2n1 (stereo unspecified)
T/C (T/C endpoint: median survival time, dose: 36.0 mg/kg/injection, schedule: Q01DX009 (ip), vehicle: distilled water + Tween-80): 131 % of control
T/C (T/C endpoint: median survival time, dose: 100.0 mg/kg/injection, schedule: Q01DX005 (ip), vehicle: distilled water + Tween-80): 147 % of control
T/C (T/C endpoint: median survival time, dose: 200.0 mg/kg/injection, schedule: Q01DX005 (ip), vehicle: distilled water + Tween-80): 145 % of control
survivor count (T/C endpoint: median survival time, dose: 278.0 mg/kg/injection, schedule: Q01DX009 (ip), vehicle: distilled water + Tween-80): 2 of 10 and 4 of 6

CN(C)/N=N/c1nc[nH]c1C(N)=O
T/C (T/C endpoint: mean survival time, dose: 100.0 mg/kg/injection, schedule: Q01DX017 (sc), vehicle: steroid suspending solution): 129 % of control
T/C (T/C endpoint: mean survival time, dose: 108.0 mg/kg/injection, schedule: Q01DX009 (sc), vehicle: steroid suspending solution): 126 % of control
T/C (T/C endpoint: mean survival time, dose: 180.0 mg/kg/injection, schedule: Q01DX009 (sc), vehicle: steroid suspending solution): 135 % of control
T/C (T/C endpoint: mean survival time, dose: 300.0 mg/kg/injection, schedule: Q01DX009 (sc), vehicle: steroid suspending solution): 146 % of control
T/C (T/C endpoint: median survival time, dose: 18.75 mg/kg/injection, schedule: Q01DX009 (sc), vehicle: saline): 125 % of control
T/C (T/C endpoint: median survival time, dose: 25.0 mg/kg/injection, schedule: Q01DX009 (ip), vehicle: saline with Tween-80): 133 % of control
T/C (T/C endpoint: median survival time, dose: 25.0 mg/kg/injection, schedule: Q01DX009 (ip), vehicle: saline): 126 % of control
T/C (T/C endpoint: median survival time, dose: 37.5 mg/kg/injection, schedule: Q01DX009 (sc), vehicle: saline): 133 % of control
T/C (T/C endpoint: median survival time, dose: 50.0 mg/kg/injection, schedule: Q01DX009 (ip), vehicle: saline with Tween-80): 144 % of control
T/C (T/C endpoint: median survival time, dose: 50.0 mg/kg/injection, schedule: Q01DX009 (ip), vehicle: saline): 135 % of control
T/C (T/C endpoint: median survival time, dose: 75.0 mg/kg/injection, schedule: Q01DX009 (ip), vehicle: saline): 148 % of control
T/C [3]: 135 % of control
T/C (T/C endpoint: median survival time, dose: 100.0 mg/kg/injection, schedule: Q01DX017 (sc), vehicle: steroid suspending solution, evaluated on day 6): 126 % of control
T/C (T/C endpoint: median survival time, dose: 100.0 mg/kg/injection, schedule: Q01DX017 (sc), vehicle: steroid suspending solution, evaluated on day 27): 127 % of control
T/C (T/C endpoint: median survival time, dose: 108.0 mg/kg/injection, schedule: Q01DX009 (sc), vehicle: steroid suspending solution): 128 % of control
T/C [1]: 127 % of control
T/C (T/C endpoint: median survival time, dose: 150.0 mg/kg/injection, schedule: Q01DX009 (sc), vehicle: saline, evaluated on day 30): 135, 158, 172 % of control
T/C (T/C endpoint: median survival time, dose: 150.0 mg/kg/injection, schedule: Q01DX009 (sc), vehicle: saline, evaluated on day 45): 148 % of control
T/C (T/C endpoint: median survival time, dose: 180.0 mg/kg/injection, schedule: Q01DX009 (sc), vehicle: steroid suspending solution): 135 % of control
T/C [2]: 133 % of control
T/C [4]: 136 % of control (2×)
T/C (T/C endpoint: median survival time, dose: 400.0 mg/kg/injection, schedule: Q01DX009 (ip), vehicle: saline with Tween-80): 126 % of control [9 of 10 alive]
T/C (T/C endpoint: median survival time, dose: 400.0 mg/kg/injection, schedule: Q01DX009 (sc), vehicle: saline + alcohol): 128 % of control
T/C [5]: 147 % of control
survivor count (T/C endpoint: median survival time, dose: 833.0 mg/kg/injection, schedule: Q01DX Z (sc), vehicle: carboxymethylcellulose (CMC)): 5 of 8
T/C (T/C endpoint: median survival time, dose: 1200.0 mg/kg/injection, schedule: Q01DX009 (sc), vehicle: saline + alcohol): 128 % of control
T/C (T/C endpoint: median survival time, dose: 1200.0 mg/kg/injection, schedule: Q01DX009 (sc), vehicle: saline): 143 % of control
T/C (T/C endpoint: median survival time, dose: 1800.0 mg/kg/injection, schedule: Q01DX009 (sc), vehicle: saline + alcohol): 128 % of control

O=c1cnn(C2OC(CO)C(O)C2O)c(=O)[nH]1 (stereo unspecified)
T/C [3]: 130 % of control [9 of 10 alive]
T/C (T/C endpoint: median survival time, dose: 150.0 mg/kg/injection, schedule: Q01DX009 (ip), vehicle: saline): 131 % of control
T/C (T/C endpoint: median survival time, dose: 150.0 mg/kg/injection, schedule: Q01DX009 (sc), vehicle: saline): 133 % of control
T/C (T/C endpoint: median survival time, dose: 300.0 mg/kg/injection, schedule: Q01DX009 (ip), vehicle: saline): 131 % of control
T/C [4]: 132 % of control
T/C (T/C endpoint: median survival time, dose: 600.0 mg/kg/injection, schedule: Q01DX009 (ip), vehicle: saline): 140 % of control
T/C [5]: 125 % of control

c1ccc(CNc2ncnc3[nH]ncc23)cc1
survivor count (T/C endpoint: median survival time, dose: 180.0 mg/kg/injection, schedule: Q01DX Z (sc), vehicle: methylcellulose (MC)): 0 of 10
